# Measurements from patent publication US7250269B2, “Composition for assaying glycoprotein” (Asahi Kasei Pharma Corporation, priority 2001, dated 2007).
# For at least one compound, name, drawing or mass did not settle the structure.
# Columns and labels:
# [1] = test system: Protease type-XXIV; experiment: Screening of globulin component-selective protease inhibitors (HSA substrate with/without γ-globulin); type: biochemical, Bacillus; details: additive concentration 1.0%; control 23.8
# Description: Using protease type-XXIV (manufactured by Sigma-Aldrich Co.) having high reactivity with the HSA substrate solution, components that decrease the protease reaction with the above globulin substrate solutions were screened based on the HSA substrate solution.
# In the R-1 proteolytic reagent, as the deoxycholic acid amide, bisgluconamidopropyldeoxycholamide was used; as the cholic acid amide, 3-[(3-cholamidopropyl)dimethvlammonio]propane sulfonic acid, 3-[(3-cholamidopropyl)dimethylammonio]-2-hydroxypropane sulfonic acid, or bisgluconamidopropylcholamide was used; as the quaternary ammonium salt, benzyltriethylan chloride or benzyltri-n-butylammonium chloride was used; and as quatemary ammonium salt-type cationic surfactant, lauryltrimethylammonium chloride or lauryldimethylamine oxide was used.
# • 1. […]
# Absorbances at a wavelength of 546 nm were measured before and after the addition of R-2. The difference of the two measurements was regarded as the absorbance change. […]
# ΔA (HSA) was calculated by subtracting the absorbance change of the blank sample from the absorbance change obtained for the HSA substrate solution. ΔA(+γ-globulin) was calculated by subtracting the absorbance change of the blank sample from the absorbance change obtained for the substrate solution to which γ-globulin was added. […]
# [2] = test system: Protease type-XXIV; experiment: Screening of globulin component-selective protease inhibitors using Hb substrate solution; type: biochemical, Bacillus; details: Hb substrate solution instead of HSA
# Method: The same measurement was conducted using the Hb substrate solution instead of the HSA substrate solution, provided that when the Hb substrate solution was used, proteins were removed using trichloroacetic acid after the reaction with R-1, then the residue was neutralized and R-2 was added.
compound,measurement,setting,value
C[C@H](CCC(=O)O)[C@H]1CC[C@H]2[C@@H]3CC[C@@H]4C[C@H](O)CC[C@]4(C)[C@H]3C[C@H](O)[C@]12C [Deoxycholic acid],Effect of γ-globulin (%),[1],20.0%
same,effect of inhibiting a protease reaction with globulin,[2],effect of inhibiting a protease reaction with globulin
